Laboratory results as given in publication PMC5069634.
No constants are given. Whether binding was seen depends on the method and setting. Binding seen in cells or lysates may run through a third protein. Some binding calls cover weakened binding; strength is not graded here.

Biological target: T1, cyclin-dependent kinase inhibitor p21 (mouse (endogenous in JB6 P+)) (UniProt P39689)
T1 sequence: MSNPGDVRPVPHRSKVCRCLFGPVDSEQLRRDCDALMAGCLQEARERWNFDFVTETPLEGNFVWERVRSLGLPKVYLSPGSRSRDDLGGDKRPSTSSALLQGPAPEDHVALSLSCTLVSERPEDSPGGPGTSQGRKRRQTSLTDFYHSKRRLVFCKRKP
Experiment: co-IP; endogenous proteins; cell lysate at 1 mg/mL incubated with anti-p21 or anti-Keap1 antibody overnight at 4 °C, then Protein A/G PLUS-Agarose for 4 h; washed three times with NP-40 lysis buffer; immunoblot for Nrf2; cells with or without DADS for 4 h

binding: binds
B1: NF-E2-related factor 2 (Nrf2) (protein, UniProt Q60795 1-597)
chain: MMDLELPPPGLQSQQDMDLIDILWRQDIDLGVSREVFDFSQRQKDYELEKQKKLEKERQEQLQKEQEKAFFAQFQLDEETGEFLPIQPAQHIQTDTSGSASYSQVAHIPKQDALYFEDCMQLLAETFPFVDDHESLALDIPSHAESSVFTAPHQAQSLNSSLEAAMTDLSSIEQDMEQVWQELFSIPELQCLNTENKQLADTTAVPSPEATLTEMDSNYHFYSSISSLEKEVGNCGPHFLHGFEDSFSSILSTDDASQLTSLDSNPTLNTDFGDEFYSAFIAEPSDGGSMPSSAAISQSLSELLDGTIEGCDLSLCKAFNPKHAEGTMEFNDSDSGISLNTSPSRASPEHSVESSIYGDPPPGFSDSEMEELDSAPGSVKQNGPKAQPAHSPGDTVQPLSPAQGHSAPMRESQCENTTKKEVPVSPGHQKAPFTKDKHSSRLEAHLTRDELRAKALHIPFPVEKIINLPVDDFNEMMSKEQFNEAQLALIRDIRRRGKNKVAAQNCRKRKLENIVELEQDLGHLKDEREKLLREKGENDRNLHLLKRRLSTLYLEVFSMLRDEDGKPYSPSEYSLQQTRDGNVFLVPKSKKPDTKKN
